# Source: PubChem BioAssay AID2685 (National Center for Advancing Translational Sciences (NCATS), 2010)
# The list shows a part of the results. Further columns of the screen follow, without active or inactive calls. The list favours compounds with an active or inconclusive main result. The note in brackets gives the kind of curve behind each potency; many fits are weak.
# Assay: qHTS Assay for Lipid Storage Modulators in Drosophila S3 Cells;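 on cell number change: cells counted by Cell Tracker Red CMTPX staining in the red channel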
# Details: BODIPY lipid droplet fluorescence, 18-24 h; for cell number change: measured here: cell count max response, cells fed with added oleic acid
# Procedure, shortened: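 Drosophila S3 cells got compounds at several concentrations plus oleic acid (400 uM solution). Laser-scanning cytometry with 488 nm excitation read lipid droplets at 500-530 nm and cells at 575-640 nm. Percent activity was relative to 20 uM Triacsin C.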
# [1] = measured here: lipid fluorescence (Fed channel) AC50, cells fed with added oleic acid
# [2] = measured here: cell number channel AC50, cells fed with added oleic acid
smiles,measurement,setting,value
CC(C)(C)CC(=O)Nc1cccc(-c2cn3cccnc3n2)c1,cell number change,,3.05%
same,AC50,[1],"0.82 µM [rising, single point]"
C=CCc1ccccc1OCC(=O)N/N=C/c1ccccc1OCC,cell number change,,28.6%
same,AC50,[1],"0.92 µM [rising, full curve]"
O=C(c1ccccc1)c1cccc(NC(=O)c2ccco2)c1,cell number change,,-14.4%
same,AC50,[1],"14.6 µM [rising, single point]"
CCC1(c2ccccc2)NC(=O)N(Cc2cccc([N+](=O)[O-])c2)C1=O (stereo not given),cell number change,,10.9%
O=C(Nc1nnc(CCS(=O)(=O)c2ccc3ccccc3c2)s1)c1cccs1,cell number change,,-66.2%
same,AC50,[2],"13 µM [falling, partial curve, poor fit]"
same,AC50,[1],"0.184 µM [falling, full curve, poor fit]"
COc1ccccc1NC(=O)CCCC(=O)OCC(=O)c1ccc(F)cc1,cell number change,,-0.708%
Cc1cccc(C(=O)OCC(=O)Nc2c(C)n(C)n(-c3ccccc3)c2=O)c1,cell number change,,0.963%
CCN(CC)S(=O)(=O)c1cccc(NC(=O)c2ccc(Br)cc2)c1,cell number change,,14.2%
same,AC50,[2],"7.31 µM [rising, partial curve]"
O=C(O)c1ccccc1NS(=O)(=O)c1ccc2c3c(cccc13)C(=O)N2,cell number change,,0.0183%
same,AC50,[1],"0.164 µM [rising, single point]"
Cc1ccc(C(=O)NCC(=O)OCC(=O)N2CCCc3ccccc32)cc1,cell number change,,11.7%
same,AC50,[1],"2.06 µM [rising, partial curve, poor fit]"
COc1ccc(C(=O)c2c(C)oc3ccc(O)cc23)c(OC)c1,cell number change,,-33.3%
same,AC50,[2],"29.1 µM [falling, single point]"
COc1ccc2[nH]c(C)c(CCN(Cc3cccs3)C(=S)Nc3ccc(F)cc3)c2c1,cell number change,,43.1%
same,AC50,[2],"2.91 µM [rising, full curve]"
same,AC50,[1],"0.731 µM [rising, full curve]"
CSc1ccccc1OCc1cc(C(=O)N2CCc3sccc3C2)no1,cell number change,,0.0824%
same,AC50,[1],"2.31 µM [rising, partial curve]"
CC1=NN(c2ccccc2)C(=O)/C1=C\c1cn(C)c2ccccc12,cell number change,,-75.2%
same,AC50,[2],"29.1 µM [falling, single point]"
O=C(c1ccccc1)N(Cc1ccccc1)Cc1ccccc1,cell number change,,-13.9%
same,AC50,[1],"0.13 µM [rising, full curve, poor fit]"
CCOC(=O)N1CCN(CC(=O)c2c[nH]c3ccc(F)cc23)CC1,cell number change,,-20.3%
CCc1ccc(CNC(=O)C2CCC(=O)N2C2CCCCC2)cc1 (stereo not given),cell number change,,-21.7%
CN1C(=O)c2cccc3c(S(=O)(=O)Nc4ccccc4F)ccc1c23,cell number change,,13%
same,AC50,[1],"2.91 µM [rising, single point]"
O=C(c1ccc(Cn2c(=O)[nH]c3ccccc3c2=O)cc1)N1CCN(c2ccc(F)cc2)CC1,AC50,[1],"29.1 µM [rising, single point]"
CCCCn1c(N)c(N(CCOC)C(=O)CN2C(=O)C3CCCCC3C2=O)c(=O)[nH]c1=O (stereo not given),cell number change,,-4.15%
same,AC50,[1],"0.461 µM [falling, partial curve, poor fit]"
Cc1nn(C(C)C(=O)NCCC2=CCCCC2)c(=O)c2nn(-c3ccccc3)c(C)c12 (stereo not given),cell number change,,-14.7%
same,AC50,[2],"4.11 µM [falling, partial curve, poor fit]"
COC(=O)c1ccc(N=Cc2c(C(F)(F)F)[nH][nH]c2=O)cc1,cell number change,,-59.5%
same,AC50,[2],"29.1 µM [falling, single point]"
same,AC50,[1],"20.6 µM [falling, single point]"
CC(C)CN(C(=O)c1ccc(=O)n(C)n1)c1nc2ccccc2s1,cell number change,,75.3%
same,AC50,[2],"5.8 µM [rising, partial curve, poor fit]"
same,AC50,[1],"11.6 µM [rising, partial curve]"
O=C(NC(=S)Nc1ccc(C(=O)N2CCOCC2)cc1)c1ccc([N+](=O)[O-])cc1,cell number change,,-18.1%
CC(C)Cn1c(N)c(C(=O)COC(=O)c2cc(F)cc(F)c2)c(=O)n(C)c1=O,cell number change,,-16.8%
same,AC50,[2],"0.461 µM [rising, single point]"
CC(=O)N1CCOc2ccc(S(=O)(=O)N3CCN(c4cc(C)ccc4C)CC3)cc21,cell number change,,32.2%
same,AC50,[2],"4.61 µM [rising, full curve, poor fit]"
same,AC50,[1],"0.651 µM [rising, partial curve, poor fit]"
Cc1ccc(C(CC(=O)NCc2ccco2)c2ccccc2)c(O)c1 (stereo not given),cell number change,,-5.42%
same,AC50,[2],"2.31 µM [falling, partial curve]"
same,AC50,[1],"2.06 µM [falling, partial curve]"
CC(Cn1nnc2ccccc21)C(=O)O (stereo not given),cell number change,,14.8%
same,AC50,[1],"0.00461 µM [falling, full curve, poor fit]"
CCCCC1(CC(=O)OCC)C(=O)N(c2ccccc2)N(c2ccccc2)C1=O,cell number change,,22.7%
same,AC50,[2],"0.651 µM [rising, full curve]"
O=C(Nc1nnc(SCc2ccccn2)s1)C1CC(=O)N(c2ccc(F)cc2)C1 (stereo not given),cell number change,,-14.7%
same,AC50,[1],"6.51 µM [rising, single point]"
CCOc1ccc(NC(=S)NC(C)CCc2ccccc2)cc1 (stereo not given),cell number change,,74.2%
same,AC50,[2],"29.1 µM [rising, single point]"
same,AC50,[1],"20.6 µM [rising, partial curve]"
Cc1ccc(C(=O)OCC(=O)Nc2cc(C(C)(C)C)no2)c(C)c1,cell number change,,-71.1%
same,AC50,[2],"14.6 µM [falling, partial curve]"
same,AC50,[1],"7.31 µM [falling, partial curve]"
CCCCn1c(N)c(N2CCOCC2)c(=O)n(CC(=O)NCCc2ccccc2)c1=O,cell number change,,-3.94%
same,AC50,[2],"2.31 µM [falling, partial curve, poor fit]"
same,AC50,[1],"6.51 µM [falling, single point]"
COc1ccc(NC(C)=O)cc1S(=O)(=O)NC(C)c1ccc(-n2ccnc2)cc1 (stereo not given),cell number change,,-6.97%
same,AC50,[1],"0.731 µM [rising, full curve]"
COCCCNC(=S)NC1CC2CCC(C1)N2Cc1ccccc1 (stereo not given),cell number change,,12.4%
same,AC50,[1],"1.46 µM [rising, partial curve, poor fit]"
O=[N+]([O-])c1cccc(S(=O)(=O)NC2CC3CCC2C3)c1 (stereo not given),cell number change,,-4.74%
same,AC50,[2],"7.31 µM [rising, partial curve, poor fit]"
same,AC50,[1],"4.61 µM [falling, single point]"

# Part of the list above, tab-delimited:
smiles	measurement	setting	value
CC1=NN(c2ccccc2)C(=O)/C1=C\c1cn(C)c2ccccc12	AC50	[2]	29.1 µM [falling, single point]
O=C(c1ccccc1)N(Cc1ccccc1)Cc1ccccc1	cell number change		-13.9%

# Copied from the listing for reference:
smiles,measurement,setting,value
O=C(Nc1nnc(CCS(=O)(=O)c2ccc3ccccc3c2)s1)c1cccs1,AC50,[2],"13 µM [falling, partial curve, poor fit]"
same,AC50,[1],"0.184 µM [falling, full curve, poor fit]"
COc1ccccc1NC(=O)CCCC(=O)OCC(=O)c1ccc(F)cc1,cell number change,,-0.708%
